Laboratory results as given in publication PMC1855991.
Where a chain is given by its changes, count along the chain named. No constants are given. Whether binding was seen depends on the method and setting. In cells and extracts the contact can be indirect. Some results given as binding are weak or reduced against the parent protein; the word gives no strength. Where a sequence is shown, tags or fusion partners need not be part of it.

Tests used:
[1] = target: T1, Lsk1-HA (S. pombe) (UniProt O14098); assay: co-IP; S. pombe cells grown to mid-log phase and lysed under native conditions; anti-HA (12CA5) immunoprecipitation, SDS-PAGE, immunoblot with anti-myc (9E10)
T1 sequence: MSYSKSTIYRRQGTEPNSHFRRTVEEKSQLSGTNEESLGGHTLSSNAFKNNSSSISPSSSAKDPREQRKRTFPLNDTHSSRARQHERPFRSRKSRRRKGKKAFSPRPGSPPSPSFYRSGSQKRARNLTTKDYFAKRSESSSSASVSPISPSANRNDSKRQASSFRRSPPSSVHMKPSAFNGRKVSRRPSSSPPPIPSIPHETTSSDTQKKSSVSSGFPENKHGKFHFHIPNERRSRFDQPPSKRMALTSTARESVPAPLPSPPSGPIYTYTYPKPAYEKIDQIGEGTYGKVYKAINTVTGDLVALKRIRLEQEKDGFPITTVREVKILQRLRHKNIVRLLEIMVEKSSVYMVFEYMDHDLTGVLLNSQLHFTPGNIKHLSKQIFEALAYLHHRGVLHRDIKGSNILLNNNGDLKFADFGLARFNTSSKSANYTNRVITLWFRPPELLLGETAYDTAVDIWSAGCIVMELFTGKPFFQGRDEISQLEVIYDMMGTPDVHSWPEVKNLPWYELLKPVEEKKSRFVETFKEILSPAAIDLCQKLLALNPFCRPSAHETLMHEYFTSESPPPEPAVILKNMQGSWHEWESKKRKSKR

[2] = target: T2, Lsk1-K306R-HA (S. pombe) (UniProt O14098); assay: as above
T2 sequence: T1 sequence with K306R

B1: Lsc1-myc (protein, UniProt O59748 1-331)
chain: MAENENHVLSIRMSHPYYSEKEISRILSTRDPKENNLRMQAFAWISTLSKTLKFPVRTSGLAMLLYSRFQLFFPVNEIPLLECATACLVVASKIEDTAKKFRDILLAHYLQKHPGSEVDAHSQLIEENKKRILGLERMTLELICFDFRVRHPHNYMVKFAKSLKFSSSTASIAWNVCTDAYKTYTMLKYPAHIVAVASISIACKLQQLPQPIIPRSFFAPPALTEAVIADILDLYMHYQPHTCIGNMYTTEKLLGLCVDFQRAQKNSGRPQKPPQIDPHSSSLADEYRESNKRLQESKESCARFILDCDRKYFNTEFEKRMLEERRNKGTV
- binding [1]: binds
- binding [2]: no binding
